Reference: publication PMC6332004, “Transport of Twelve Coumarins from Angelicae Pubescentis Radix across a MDCK-pHaMDR Cell Monolayer—An in Vitro Model for Blood-Brain Barrier Permeability” (Molecules, 2015)

Assays:
in vitro = settings: dog, MDCK-MDR1, pH 7.4
[1] = system: MDCK-pHaMDR cell monolayer; assay: Bidirectional transport across MDCK-pHaMDR cell monolayer (in vitro BBB model); settings: AP to BL; coumarins 50 µM, caffeine 10 µM, atenolol 200 µM; 90 min; mean ± S.D., n = 6

Question: With `CC(C)NCC(O)COc1ccc(CC(N)=O)cc1` (centres unmarked) [Atenolol, atenolol, reference compound] as the molecule, how does the Papp A→B at 90 min (in vitro) read?
Answer: The Papp A→B at 90 min was 0.761 ×10⁻⁶ cm/s.

Question: And the “Papp AP-BL” value [1]?
Answer: Its value is 0.76 ± 0.16 ×10^−6 cm/s.
